Reference: paper PMC4358365, “Conserved mechanisms of microtubule-stimulated ADP release, ATP binding, and force generation in transport kinesins” (eLife, 2014)
Results are given in words; binding and its absence hold for the method and conditions named. A result given as binding can be weak or reduced; the word gives no strength.

Legend:
[1] = target: β-tubulin (bovine, within the paclitaxel-stabilised microtubule) (bovine); assay: cryo-EM structure; Mg-ADP state: 5 μM MT in BrB20, then Kin3 10 μM in BrB20 with 2 mM ADP, applied in turn to the grid; Vitrobot 25°C, 100% humidity; 13 protofilament MTs; both purified
[2] = target: paclitaxel-stabilised microtubule polymerised from bovine αβ-tubulin (bovine); assay: as above
[3] = target: α-tubulin (bovine, within the paclitaxel-stabilised microtubule) (bovine); assay: as above
[4] = target: β-tubulin (bovine, within the paclitaxel-stabilised microtubule) (bovine); assay: cryo-EM structure; no nucleotide (NN) state: 5 μM MT in BrB20, then motor domain in BrB20 with apyrase (10 units/ml), Kin3 5 μM, Kin1 100 μM; Vitrobot 25°C, 100% humidity; 13 protofilament MTs; both purified
[5] = target: paclitaxel-stabilised microtubule polymerised from bovine αβ-tubulin (bovine); assay: as above
[6] = target: α-tubulin (bovine, within the paclitaxel-stabilised microtubule) (bovine); assay: as above
[7] = target: β-tubulin (bovine, within the paclitaxel-stabilised microtubule) (bovine); assay: cryo-EM structure; Mg-ADPAlFx state: 5 μM MT in BrB20, then motor domain in BrB20 with 2 mM ADP + AlF4, Kin3 5 μM, Kin1 50 μM; Vitrobot 25°C, 100% humidity; 13 protofilament MTs; both purified
[8] = target: paclitaxel-stabilised microtubule polymerised from bovine αβ-tubulin (bovine); assay: as above
[9] = target: α-tubulin (bovine, within the paclitaxel-stabilised microtubule) (bovine); assay: as above
[10] = target: β-tubulin (bovine, within the paclitaxel-stabilised microtubule) (bovine); assay: cryo-EM structure; Mg-AMPPNP state: 5 μM MT in BrB20, then motor domain in BrB20 with 2 mM AMPPNP, Kin3 5 μM, Kin1 50 μM; Vitrobot 25°C, 100% humidity; 13 protofilament MTs; both purified
[11] = target: paclitaxel-stabilised microtubule polymerised from bovine αβ-tubulin (bovine); assay: as above
[12] = target: α-tubulin (bovine, within the paclitaxel-stabilised microtubule) (bovine); assay: as above

- binding [1]: binds
- binding [2]: binds
- binding [3]: binds
- binding [4]: binds
- binding [5]: binds
- binding [6]: binds
- binding [7]: binds
- binding [8]: binds
- binding [9]: binds
- binding [10]: binds
- binding [11]: binds
- binding [12]: binds
B1: human kinesin-3 (Kin3) motor domain construct (Kif1A, residues 1–361) (domain or fragment, UniProt Q12756 1-361)
chain: MAGASVKVAVRVRPFNSREMSRDSKCIIQMSGSTTTIVNPKQPKETPKSFSFDYSYWSHTSPEDINYASQKQVYRDIGEEMLQHAFEGYNVCIFAYGQTGAGKSYTMMGKQEKDQQGIIPQLCEDLFSRINDTTNDNMSYSVEVSYMEIYCERVRDLLNPKNKGNLRVREHPLLGPYVEDLSKLAVTSYNDIQDLMDSGNKARTVAATNMNETSSRSHAVFNIIFTQKRHDAETNITTEKVSKISLVDLAGSERADSTGAKGTRLKEGANINKSLTTLGKVISALAEMDSGPNKNKKKKKTDFIPYRDSVLTWLLRENLGGNSRTAMVAALSPADINYDETLSTLRYADRAKQIRCNAVIN
